This experiment has as its system BT116 glioblastoma. Nature of the experiment: Intracranial human glioblastoma model. The conditions noted are these: MP-MUS-treated group, mice #1-11; Day 307 = final day, all remaining animals sacrificed. As to the method:
Postglenoid Foramen Injection. […] Some five minutes after injection and recovery from the anesthetic, the majority of the mice were walking around and were phenotypically normal within an hour. In the main study 40 SCID immuno-deficient mice were injected via the postglenoid foramen with glioblastoma in Matrigel™:tissue culture medium, 4:6, to a final cell load of 2,500,000 cells per animal; according to Iwami et al., (2012). […] A number of the SCID mice died following the glioma injections or had deficits in the first few weeks following the initial injection. After >3 months, 24 animals were asymptomatic, and 22 animals were split into two groups; MP-MUS treated and Saline treated. The remaining pair was sacrificed and their brains were fixed/waxed and archived as pre-treatment controls.
Drug Therapy and Symptom Monitoring. On day 115 mice are then given either 200 μL saline or 200 μL of 1 mg/mL MP-MUS in saline, via tail-vein injection. The same treatment was repeated on days 122 and 129.
The mice were initially placed in groups of 2×4 and 1×3 animals and were individually every 1-3 days. The mice were assessed for the onset of neurological symptoms caused by an intracranial tumor throughout the study. Symptoms in the mice that require euthanasia were sudden weight loss; >2 grams in 7 days, deficits of movement that caused the animal to be unable to drink/feed and immobility. […]

The source holds more than one record for some entries. This list holds those alone. There may be further records. The values listed for one entry differ, and nothing given here explains why; dose, time, organism, isomer or construct need not be as stated for each record. Marks such as (2×) count equal records among those shown.

`CC(C(=O)N(CCCl)CCCl)C1=CCN(C)CC1` (stereo not shown): the “SAC (day of sacrifice), individual mice” value was “Day 307 (10×) and Day 225”.

The values are drawn from patent US10555936B2, “Chemotherapeutic compositions and methods for treating human gliomas” (The Methodist Hospital, priority 2011, dated 2020).
